Consider two molecules from patent US20240115742A1, “FLUORINATED FIBERS FOR MULTIMODAL 1H AND 19F MRI, ULTRASOUND, FLUORESCENCE DETECTION AND CONFORMATIONAL AND TEMPERATURE DETECTION BY 19F MRS” (New York University, priority 2022, published 2024).

Data set [1] in a line: Circular dichroism wavelength scans. It counts as physicochemical. Particulars: 25 °C, 15 μM, pH 4.0. On the technique in general: Circular dichroism is the unequal absorption of left and right circularly polarised light.
Data set [2] in a line: ATR-FTIR peak deconvolution of secondary structure. It counts as physicochemical. As to the method:
Attenuated Total Reflectance-Fourier Transform Infrared Spectroscopy. Secondary structure of protein fiber variants was confirmed using attenuated total reflectance-Fourier transform infrared (ATR-FTIR) spectroscopy using the Nicolet 6700 Fourier Transform Infrared Spectrometer equipped with a diamond ATR accessory and a mercury cadmium telluride (MCT)-A detector. Spectra were collected for 5 μL of 500 μM protein from 4000-400 cm^−1 with 0.5 cm^−1 increments at room temperature (RT). For CCM bound protein, protein was bound at a final concentration of 500 μM and saturated with CCM as determined by fluorescent spectroscopic drug binding with a final 1% v/v DMSO. Sample spectra were normalized using buffer background and analyzed from 1700-1600 cm^−1 corresponding to the amide I region. Peaks were deconvoluted using Gaussian functions in PeakFit software until the goodness of fit reached r^2≥0.99. Peaks were associated with secondary structure were determined by methods known in the art.
(§1) Attenuated Total Reflectance-Fourier Transform Infrared Spectroscopy. Secondary structure of Q2 protein was confirmed using attenuated total reflectance-Fourier transform infrared (ATR-FTIR) spectroscopy using the Nicolet 6700 Fourier Transform Infrared Spectrometer equipped with a diamond ATR accessory and a mercury cadmium telluride (MCT)-A detector. Spectra were collected for 5 μL of 2 mM protein from 4000-400 cm^−1 with 0.5 cm^−1 increments. Sample spectra were normalized using buffer background and analyzed from 1700-1600 cm^−1 corresponding to the amide I region. Peaks were deconvoluted using Gaussian functions in PeakFit software until the goodness of fit reached r^2>0.99.
as §1, with “of Q2LTF and QLTF” for “of Q2”, “using a” for “using the”, “of 1” for “of 2”, “with 4.0” for “with 0.5”, “reached r^2≥0.99.” for “reached r^2>0.99.”
Attenuated Total Reflectance-Fourier Transform Infrared Spectroscopy. Secondary structure before (solution) and after gelation (gel) was also assessed by peak deconvolution of attenuated total reflectance-Fourier transform infrared (ATR-FTIR) spectra. ATR-FTIR measurements were performed using a Nicolet 6700 Fourier Transform Infrared Spectrometer equipped with a mercury cadmium telluride (MCT)-A detector. Spectra were collected for 5 μL samples of protein at 2 mM from 4000-400 cm^−1 with a 4.0 cm^−1 resolution, normalized, and buffer-subtracted prior to analysis from 1700-1600 cm^−1, corresponding to the amide I region. ATR-FTIR measurements were performed immediately after concentration to 2 mM for solution measurements and after. Peaks were deconvoluted using Gaussian functions in PeakFit software until the goodness of fit reached r^2≥0.99.

On to “C2: C variant with redistributed electrostatic patches, SEQ ID NO: 22 (MRGSHHHHHHGSIEGRMQLAKHMLKELQKTNALQSVRTLLQQQVEEITQLKETVENSDSS) [Protein C2]”, for which, in data set [1], the θ208 is −19,000 ± 1,000 mdeg · cm^2 · dmol^−1, the θ222 was −18,000 ± 600 mdeg · cm^2 · dmol^−1 and the θ222/θ208 came to 0.97 ± 0.02. In addition, in data set [2] (native), the “3-10 Helix” value is recorded as 4.1%; the “Turns/Coils (combined, random content)” value was 9.4±7.2%; the Unordered came to 0.0%; the α-helix was determined as 38.4%. In data set [2] (native), the β-sheet amounted to 37.2% and the “β-sheet (combined)” value is 52.2 ± 3.6%. Further, in data set [2] (w/CCM), the “3-10 Helix” value was 12.3%, the “Turns/Coils (combined)” value was determined as 21.2 ± 6.7%, the Unordered worked out at 0.0% and the α-helix was found to be 50.0%. In data set [2] (w/CCM), the β-sheet is reported as 23.9% and the “β-sheet (combined)” value was 28.7 ± 37.9%.

B1: C: cartilage oligomeric matrix protein coiled-coil with His tag, SEQ ID NO: 21 (protein)
chain: MRGSHHHHHHGSIEGRAPQMLRELQETNAALQDVRELLRQQVKEITFLKNTVMESDASGKL
modifications: His tag
Take B1: in data set [1], the θ208 is given as −21,000 ± 5,000 mdeg · cm^2 · dmol^−1, the θ222 is −23,000 ± 5,000 mdeg · cm^2 · dmol^−1 and the θ222/θ208 is listed as 1.11 ± 0.06. In addition, in data set [2] (native), the “3-10 Helix” value is 10.6%; the “Turns/Coils (combined, random content)” value is given as 20.6 ± 12.0%; the Unordered amounted to 0.0%; the α-helix stood at 42.7%. For the same molecule, in data set [2] (native), the β-sheet came out at 25.1% and the “β-sheet (combined)” value came out at 36.5 ± 6.2%. Also, in data set [2] (w/CCM), the “3-10 Helix” value was determined as 19.1%, the “Turns/Coils (combined)” value came to 39.9 ± 20.6%, the Unordered is 0.0% and the α-helix was determined as 26.6%. In data set [2] (w/CCM), the β-sheet is reported as 33.5% and the “β-sheet (combined)” value is reported as 33.5 ± 37.9%.
